According to patent publication US20250283871A1, “COMPOSITIONS AND METHODS FOR MODULATING THE INTERACTION BETWEEN SS18-SSX FUSION ONCOPROTEIN AND NUCLEOSOMES” (Dana-Farber Cancer Institute, Inc., priority 2020, published 2025):

B1: SYMPK (protein, UniProt Q92797 1-1274, looked up)
Symplekin: MASGSGDSVTRRSVASQFFTQEEGPGIDGMTTSERVVDLLNQAALITNDSKITVLKQVQELIINKDPTLLDNFLDEIIAFQADKSIEVRKFVIGFIEEACKRDIELLLKLIANLNMLLRDENVNVVKKAILTMTQLYKVALQWMVKSRVISELQEACWDMVSAMAGDIILLLDSDNDGIRTHAIKFVEGLIVTLSPRMADSEIPRRQEHDISLDRIPRDHPYIQYNVLWEEGKAALEQLLKFMVHPAISSINLTTALGSLANIARQRPMFMSEVIQAYETLHANLPPTLAKSQVSSVRKNLKLHLLSVLKHPASLEFQAQITTLLVDLGTPQAEIARNMPSSKDTRKRPRDDSDSTLKKMKLEPNLGEDDEDKDLEPGPSGTSKASAQISGQSDTDITAEFLQPLLTPDNVANLVLISMVYLPEAMPASFQAIYTPVESAGTEAQIKHLARLMATQMTAAGLGPGVEQTKQCKEEPKEEKVVKTESVLIKRRLSAQGQAISVVGSLSSMSPLEEEAPQAKRRPEPIIPVTQPRLAGAGGRKKIFRLSDVLKPLTDAQVEAMKLGAVKRILRAEKAVACSGAAQVRIKILASLVTQFNSGLKAEVLSFILEDVRARLDLAFAWLYQEYNAYLAAGASGSLDKYEDCLIRLLSGLQEKPDQKDGIFTKVVLEAPLITESALEVVRKYCEDESRTYLGMSTLRDLIFKRPSRQFQYLHVLLDLSSHEKDKVRSQALLFIKRMYEKEQLREYVEKFALNYLQLLVHPNPPSVLFGADKDTEVAAPWTEETVKQCLYLYLALLPQNHKLIHELAAVYTEAIADIKRTVLRVIEQPIRGMGMNSPELLLLVENCPKGAETLVTRCLHSLTDKVPPSPELVKRVRDLYHKRLPDVRFLIPVLNGLEKKEVIQALPKLIKLNPIVVKEVFNRLLGTQHGEGNSALSPLNPGELLIALHNIDSVKCDMKSIIKATNLCFAERNVYTSEVLAVVMQQLMEQSPLPMLLMRTVIQSLTMYPRLGGFVMNILSRLIMKQVWKYPKVWEGFIKCCQRTKPQSFQVILQLPPQQLGAVFDKCPELREPLLAHVRSFTPHQQAHIPNSIMTILEASGKQEPEAKEAPAGPLEEDDLEPLTLAPAPAPRPPQDLIGLRLAQEKALKRQLEEEQKLKPGGVGAPSSSSPSPSPSARPGPPPSEEAMDFREEGPECETPGIFISMDDDSGLTEAALLDSSLEGPLPKETAAGGLTLKEERSPQTLAPVGEDAMKTPSPAAEDAREPEAKGNS
B2: PIGX (protein, UniProt Q8TBF5 22-258, looked up)
GPI …: LTRGPAAAFTAARSDAGIRAMCSEIILRQEVLKDGFHRDLLIKVKFGESIEDLHTCRLLIKQDIPAGLYVDPYELASLRERNITEAVMVSENFDIEAPNYLSKESEVLIYARRDSQCIDCFQAFLPVHCRYHRPHSEDGEASIVVNNPDLLMFCDQEFPILKCWAHSEVAAPCALENEDICQWNKMKYKSVYKNVILQVPVGLTVHTSLVCSVTLLITILCSTLILVAVFKYGHFSL
B3: ARL10 (protein, UniProt Q8N8L6 1-244, looked up)
ADP-ribosylation factor-like …: MAPRPLGPLVLALGGAAAVLGSVLFILWKTYFGRGRERRWDRGEAWWGAEAARLPEWDEWDPEDEEDEEPALEELEQREVLVLGLDGAGKSTFLRVLSGKPPLEGHIPTWGFNSVRLPTKDFEVDLLEIGGSQNLRFYWKEFVSEVDVLVFVVDSADRLRLPWARQELHKLLDKDPDLPVVVVANKQDLSEAMSMGELQRELGLQAIDNQREVFLLAASIAPAGPTFEEPGTVHIWKLLLELLS
B4: SPATA5L1 (protein, UniProt Q9BVQ7 1-753, looked up)
ATPase family gene 2 protein …: MAPDSDPFPEGPLLKLLPLDARDRGTQRCRLGPAALHALGARLGSAVKISLPDGGSCLCTAWPRRDGADGFVQLDPLCASPGAAVGASRSRRSLSLNRLLLVPCPPLRRVAVWPVLRERAGAPGARNTAAVLEAAQELLRNRPISLGHVVVAPPGAPGLVAALHIVGGTPSPDPAGLVTPRTRVSLGGEPPSEAQPQPEVPLGGLSEAADSLRELLRLPLRYPRALTALGLAVPRGVLLAGPPGVGKTQLVRAVAREAGAELLAVSAPALQGSRPGETEENVRRVFQRARELASRGPSLLFLDEMDALCPQRGSRAPESRVVAQVLTLLDGASGDREVVVVGATNRPDALDPALRRPGRFDREVVIGTPTLKQRKEILQVITSKMPISSHVDLGLLAEMTVGYVGADLTALCREAAMHALLHSEKNQDNPVIDEIDFLEAFKNIQPSSFRSVIGLMDIKPVDWEEIGGLEDVKLKLKQSIEWPLKFPWEFVRMGLTQPKGVLLYGPPGCAKTTLVRALATSCHCSFVSVSGADLFSPFVGDSEKVLSQIFRQARASTPAILFLDEIDSILGARSASKTGCDVQERVLSVLLNELDGVGLKTIERRGSKSSQQEFQEVFNRSVMIIAATNRPDVLDTALLRPGRLDKIIYIPPPDHKGRLSILKVCTKTMPIGPDVSLENLAAETCFFSGADLRNLCTEAALLALQENGLDATTVKQEHFLKSLKTVKPSLSCKDLALYENLFKKEGFSNVEGI
B5: DDX23 (protein, UniProt Q9BUQ8 1-820, looked up)
Probable ATP-dependent RNA …: MAGELADKKDRDASPSKEERKRSRTPDRERDRDRDRKSSPSKDRKRHRSRDRRRGGSRSRSRSRSKSAERERRHKERERDKERDRNKKDRDRDKDGHRRDKDRKRSSLSPGRGKDFKSRKDRDSKKDEEDEHGDKKPKAQPLSLEELLAKKKAEEEAEAKPKFLSKAEREAEALKRRQQEVEERQRMLEEERKKRKQFQDLGRKMLEDPQERERRERRERMERETNGNEDEEGRQKIREEKDKSKELHAIKERYLGGIKKRRRTRHLNDRKFVFEWDASEDTSIDYNPLYKERHQVQLLGRGFIAGIDLKQQKREQSRFYGDLMEKRRTLEEKEQEEARLRKLRKKEAKQRWDDRHWSQKKLDEMTDRDWRIFREDYSITTKGGKIPNPIRSWKDSSLPPHILEVIDKCGYKEPTPIQRQAIPIGLQNRDIIGVAETGSGKTAAFLIPLLVWITTLPKIDRIEESDQGPYAIILAPTRELAQQIEEETIKFGKPLGIRTVAVIGGISREDQGFRLRMGCEIVIATPGRLIDVLENRYLVLSRCTYVVLDEADRMIDMGFEPDVQKILEHMPVSNQKPDTDEAEDPEKMLANFESGKHKYRQTVMFTATMPPAVERLARSYLRRPAVVYIGSAGKPHERVEQKVFLMSESEKRKKLLAILEQGFDPPIIIFVNQKKGCDVLAKSLEKMGYNACTLHGGKGQEQREFALSNLKAGAKDILVATDVAGRGIDIQDVSMVVNYDMAKNIEDYIHRIGRTGRAGKSGVAITFLTKEDSAVFYELKQAILESPVSSCPPELANHPDAQHKPGTILTKKRREETIFA
B6: SLC30A9 (protein, UniProt Q6PML9 68-568, looked up)
Proton-coupled zinc …: STNVQKEGQGSQTLRVEKVPSFETAEGIGTELKAPLKQEPLQVRVKAVLKKREYGSKYTQNNFITGVRAINEFCLKSSDLEQLRKIRRRSPHEDTESFTVYLRSDVEAKSLEVWGSPEALAREKKLRKEAEIEYRERLFRNQKILREYRDFLGNTKPRSRTASVFFKGPGKVVMVAICINGLNCFFKFLAWIYTGSASMFSEAIHSLSDTCNQGLLALGISKSVQTPDPSHPYGFSNMRYISSLISGVGIFMMGAGLSWYHGVMGLLHPQPIESLLWAYCILAGSLVSEGATLLVAVNELRRNARAKGMSFYKYVMESRDPSTNVILLEDTAAVLGVIIAATCMGLTSITGNPLYDSLGSLGVGTLLGMVSAFLIYTNTEALLGRSIQPEQVQRLTELLENDPSVRAIHDVKATDLGLGKVRFKAEVDFDGRVVTRSYLEKQDFDQMLQEIQEVKTPEELETFMLKHGENIIDTLGAEVDRLEKELKKRNPEVRHVDLEIL
B7: POLR3A (protein, UniProt O14802 1-1390, looked up)
DNA-directed RNA polymerase …: MVKEQFRETDVAKKISHICFGMKSPEEMRQQAHIQVVSKNLYSQDNQHAPLLYGVLDHRMGTSEKDRPCETCGKNLADCLGHYGYIDLELPCFHVGYFRAVIGILQMICKTCCHIMLSQEEKKQFLDYLKRPGLTYLQKRGLKKKISDKCRKKNICHHCGAFNGTVKKCGLLKIIHEKYKTNKKVVDPIVSNFLQSFETAIEHNKEVEPLLGRAQENLNPLVVLNLFKRIPAEDVPLLLMNPEAGKPSDLILTRLLVPPLCIRPSVVSDLKSGTNEDDLTMKLTEIIFLNDVIKKHRISGAKTQMIMEDWDFLQLQCALYINSELSGIPLNMAPKKWTRGFVQRLKGKQGRFRGNLSGKRVDFSGRTVISPDPNLRIDEVAVPVHVAKILTFPEKVNKANINFLRKLVQNGPEVHPGANFIQQRHTQMKRFLKYGNREKMAQELKYGDIVERHLIDGDVVLFNRQPSLHKLSIMAHLARVKPHRTFRFNECVCTPYNADFDGDEMNLHLPQTEEAKAEALVLMGTKANLVTPRNGEPLIAAIQDFLTGAYLLTLKDTFFDRAKACQIIASILVGKDEKIKVRLPPPTILKPVTLWTGKQIFSVILRPSDDNPVRANLRTKGKQYCGKGEDLCANDSYVTIQNSELMSGSMDKGTLGSGSKNNIFYILLRDWGQNEAADAMSRLARLAPVYLSNRGFSIGIGDVTPGQGLLKAKYELLNAGYKKCDEYIEALNTGKLQQQPGCTAEETLEALILKELSVIRDHAGSACLRELDKSNSPLTMALCGSKGSFINISQMIACVGQQAISGSRVPDGFENRSLPHFEKHSKLPAAKGFVANSFYSGLTPTEFFFHTMAGREGLVDTAVKTAETGYMQRRLVKSLEDLCSQYDLTVRSSTGDIIQFIYGGDGLDPAAMEGKDEPLEFKRVLDNIKAVFPCPSEPALSKNELILTTESIMKKSEFLCCQDSFLQEIKKFIKGVSEKIKKTRDKYGINDNGTTEPRVLYQLDRITPTQVEKFLETCRDKYMRAQMEPGSAVGALCAQSIGEPGTQMTLKTFHFAGVASMNITLGVPRIKEIINASKAISTPIITAQLDKDDDADYARLVKGRIEKTLLGEISEYIEEVFLPDDCFILVKLSLERIRLLRLEVNAETVRYSICTSKLRVKPGDVAVHGEAVVCVTPRENSKSSMYYVLQFLKEDLPKVVVQGIPEVSRAVIHIDEQSGKEKYKLLVEGDNLRAVMATHGVKGTRTTSNNTYEVEKTLGIEAARTTIINEIQYTMVNHGMSIDRRHVMLLSDLMTYKGEVLGITRFGLAKMKESVLMLASFEKTADHLFDAAYFGQKDSVCGVSECIIMGIPMNIGTGLFKLLHKADRDPNPPKRPLIFDTNEFHIPLVT

System: BAF complex subunits and histone proteins
Assay: Mass spectrometry proteomics of purified HA-SS18 WT and HA-SS18-SSX1 complexes (Tables 5A-5E)
Design: species or system human
Conditions: HEK-293T
[1] = HA-SS18SSX1_NE_peptides (Table 5B), HA-SS18-SSX1 BAF complex purification from soluble nuclear extract
[2] = HA-SS18WT_NE_peptides: proteins co-purified with HA-SS18 WT from nuclear extract (NE)
[3] = HA-SS18SSX1 purification, NE (soluble nuclear extract) fraction, peptides per identified protein
[4] = HA-SS18WT_NE_peptides: HA-SS18 WT complexes purified from nuclear extract (NE), label = protein identified (Gene Symbol)

Row | Molecule | Total (peptides) [1] | Unique (peptides) [1] | Total (peptides) [2] | Unique (peptides) [2] | Total (total peptides) [3] | Unique (unique peptides) [3] | Total (peptides) [4] | Unique (peptides) [4]
1 | B1 | 1 | 1 | 1 | 1 |  |  |  | 
2 | B2 | 1 | 1 |  |  |  |  |  | 
3 | B3 | 1 | 1 |  |  |  |  |  | 
4 | B4 | 1 | 1 |  |  |  |  |  | 
5 | B5 |  |  |  |  | 13 | 13 | 11 | 11
6 | B6 | 1 | 1 | 1 | 1 |  |  |  | 
7 | B7 | 1 | 1 |  |  |  |  |  | 
